Source: article PMC3414849

Key:
[1] = target: GST-Fd3F Forkhead domain (Fd3F-Fkh) (UniProt Q9W4Q1); assay: EMSA; conditions: 12.5 uM protein, 0.1 nM probe; 10 mM Tris-HCl (pH not stated), 1 mM DTT, 1 mM EDTA, 100 mM NaCl; 20 min on ice; 20 ul; native 6% PAGE in 0.5x TBE; competitor 10 nM; recombinant protein; protein details: GST (N-terminal, pGEX-2T); label: 33P 5' end (probe), unlabelled as competitor
[2] = target: GST-Fd3F Forkhead domain (Fd3F-Fkh) (UniProt Q9W4Q1); assay: competition with a labelled probe; conditions: 10 mM Tris-HCl (pH not stated), 1 mM DTT, 1 mM EDTA, 100 mM NaCl, 20 min on ice, 20 ul, native 6% PAGE in 0.5x TBE, competitor 10 nM, recombinant protein, protein details: GST (N-terminal, pGEX-2T)

## ATCATGGGTCATCGAACAAACAAGCCGAGAAGGTTGT (double strand) [iav-F1]
[1]
  binding result: binds
[2]; label: 33P 5' end (probe), unlabelled as competitor
  binding result: binds

## GCACGGAAATGTTTTATCAATAGCCACCAATGGACAA (double strand) [nan-F1]
[1]
  binding result: binds
[2]; 100-fold excess cold nan-F1 reduces complex, label: 33P 5' end (probe), unlabelled as competitor
  binding result: binds

## GCACGGAAATGTTTTATCACGAGCCACCAATGGACAA (double strand) [nan-F1m]
[2]; 100-fold excess cold nan-F1m, no effect on complex, label: none (cold competitor)
  binding result: no binding

The exact form of at least one protein or probe is not confirmed. For some assays here: No signal at the amounts used counts as a negative.
